From the supplement of paper PMC12542422
Counter-ions that a name gives are not always drawn. ± gives the standard deviation of the averaged measurements. The list shows a part of the results. Values are raw readings; no control value is given beside them.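 Ribosome-assembly readouts in HeLa cells were imaged via ENP1 staining, with or without export block, or inducible tagged ribosomal protein reporters. Machine learning classified per-cell signal location versus solvent (DMSO) controls. Hits surpassed the DMSO false-positive mean by five standard deviations and were visually confirmed; three biological replicates.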

The molecules below were run on HeLa K (ENP1 immunofluorescence, no LMB) (assay: fraction of cells with nucleolar or nucleolar/nucleoplasmic ENP1 signal (MainHitrate); higher = more cells with nucleolar/nuclear readout signal (for ENP1 -LMB: less RNAPI inhibition; for +LMB ENP1 and RP reporters: stronger nuclear/nucleolar retention, i.e. ribosome biogenesis defect)). Conditions: concentration: 1 µM; treatment time: 6 h; ENP1 -LMB; leptomycin B: none.

Point of comparison: Nc1ccn(C[C@@H](CO)OCP(=O)(O)O)c(=O)n1 [Cidofovir (Vistide)], fraction 0.9973 ± 0.0046. Against it:
- CCCCCCCCCCCCCCCCCCCCCCO [Docosanol (Abreva)] — within error, 0.9985 ± 0.0026
- O=C1CC[C@@H](C(=O)N2CSC[C@H]2C(=O)O)N1 [Pidotimod] — within error, 0.988 ± 0.021
- CCCC(=O)O[C@]1(C(=O)COC(C)=O)CC[C@H]2[C@@H]3C[C@H](F)C4=CC(=O)C=C[C@]4(C)[C@@]3(F)[C@@H](O)C[C@@]21C [Difluprednate] — the same, 0.9971 ± 0.0049
- C[C@]12CCC(=O)C=C1[C@@H]1C[C@@H]1[C@H]1[C@@H]3[C@@H]4C[C@@H]4[C@@]4(CCC(=O)O4)[C@@]3(C)CC[C@@H]12 [Drospirenone] — within error, 0.9989 ± 0.0018
- C[C@]12CC[C@@H]3c4ccc(O)cc4C[C@@H](CCCCCCCCC[S+]([O-])CCCC(F)(F)C(F)(F)F)[C@H]3[C@@H]1CC[C@@H]2O (some centres not stated) [Fulvestrant (Faslodex)] — the same, 0.9972 ± 0.0049
- CC(=O)OCC[N+](C)(C)C [Acetylcholine chloride] — within error, 0.9952 ± 0.0083
- CC(C)[N+]1(C)[C@@H]2CC[C@H]1C[C@@H](OC(=O)C(CO)c1ccccc1)C2 (some centres not stated) [Ipratropium bromide] — within error, 0.9988 ± 0.0021
- Cc1ccnc(NS(=O)(=O)c2ccc(N)cc2)n1 [Sulfamerazine] — within error, 0.985 ± 0.026
- Clc1ccc(C(Cn2ccnc2)OCc2ccsc2Cl)c(Cl)c1 (configuration not stated) [Tioconazole] — within error, 0.992 ± 0.013
- C[C@@H](O[C@H]1OCCN(Cc2nn(P(=O)(O)O)c(=O)[nH]2)[C@H]1c1ccc(F)cc1)c1cc(C(F)(F)F)cc(C(F)(F)F)c1 [Fosaprepitant dimeglumine] — within error, 0.979 ± 0.037
- Clc1ccc2c(c1)CCc1cccnc1C2=C1CCNCC1 [Desloratadine] — within error, 0.987 ± 0.023
- CN1CCN(C2=Nc3ccccc3Oc3ccc(Cl)cc32)CC1 [Loxapine Succinate] — within error, 0.99 ± 0.018
- CS(=O)(=O)c1ccc([C@@H](O)[C@@H](CO)NC(=O)C(Cl)Cl)cc1 [Thiamphenicol (Thiophenicol)] — within error, 0.991 ± 0.016
- COc1ccc2cc(CCC(C)=O)ccc2c1 [Nabumetone] — within error, 0.9948 ± 0.009
- CC(=O)Oc1ccccc1C(=O)Nc1ncc([N+](=O)[O-])s1 [Nitazoxanide (Alinia, Annita)] — within error, 0.9989 ± 0.002
- CCOc1ccccc1OC(c1ccccc1)C1CNCCO1 (configuration not stated) [Reboxetine mesylate] — within error, 0.958 ± 0.072
- N=C(N)Nc1ccc(C(=O)Oc2ccc3cc(C(=N)N)ccc3c2)cc1 [Nafamostat mesylate] — the same, 0.9975 ± 0.0043
- CC[C@H](C)C(=O)O[C@H]1CCC=C2C=C[C@H](C)[C@H](CC[C@@H]3C[C@@H](O)CC(=O)O3)[C@H]21 [Mevastatin] — within error, 0.994 ± 0.011
- CC(=O)O[C@H]1CC[C@@]2(C)C(=CC[C@@H]3[C@@H]2CC[C@]2(C)C(c4cccnc4)=CC[C@@H]32)C1 [Abiraterone Acetate (CB7630)] — within error, 0.987 ± 0.023
- N[C@@H](CSCCCO)C(=O)O [Fudosteine] — within error, 0.994 ± 0.01
- Cc1c(Nc2ncccc2C(=O)O)cccc1C(F)(F)F [Flunixin meglumin] — within error, 0.9944 ± 0.0097
- Cc1nnc(C(C)C)n1C1C[C@H]2CC[C@@H](C1)N2CC[C@H](NC(=O)C1CCC(F)(F)CC1)c1ccccc1 (stereo in doubt) [Maraviroc] — within error, 0.9946 ± 0.0094
- C[N+](C)(C)CCCCCC[N+](C)(C)C [Hexamethonium bromide] — within error, 0.992 ± 0.013
- O=C1c2cccc3c2[C@H](CCC3)CN1[C@@H]1CN2CCC1CC2 [Palonosetron HCl] — within error, 0.975 ± 0.043
- CCOC(=O)C1=C(COCCN)NC(C)=C(C(=O)OC)C1c1ccccc1Cl (configuration not stated) [Amlodipine besylate (Norvasc)] — within error, 0.9954 ± 0.008
- CCCNCC(O)COc1ccccc1C(=O)CCc1ccccc1 (configuration not stated) [Propafenone (Rytmonorm)] — within error, 0.9946 ± 0.0093
- COc1ccc(-n2nc(C(N)=O)c3c2C(=O)N(c2ccc(N4CCCCC4=O)cc2)CC3)cc1 [Apixaban] — within error, 0.9985 ± 0.0026
- O=C(O)c1ccc(NC(=O)[C@H](Cc2ccc(O)cc2)NC(=O)c2ccccc2)cc1 [Bentiromide] — within error, 0.9991 ± 0.0015
- Cc1nc2n(c(=O)c1CCN1CCC(c3noc4cc(F)ccc34)CC1)CCCC2O (configuration not stated) [Paliperidone (Invega)] — within error, 0.9979 ± 0.0036
- CCOc1ccc2ccccc2c1C(=O)N[C@@H]1C(=O)N2[C@@H]1SC(C)(C)[C@@H]2C(=O)O [nafcillin sodium monohydrate] — within error, 0.994 ± 0.011
- O=C(CCCN1CC=C(n2c(=O)[nH]c3ccccc32)CC1)c1ccc(F)cc1 [Droperidol] — within error, 0.989 ± 0.02
